Results are given in words; binding and its absence hold for the method and conditions named. In cells and extracts the contact can be indirect.

The chains behind the UniProt entries cited, without tags or fusion partners. Where a name states a change or a piece, a line headed by the entry shows the natural chain unless it says otherwise.
UniProt Q5TH69: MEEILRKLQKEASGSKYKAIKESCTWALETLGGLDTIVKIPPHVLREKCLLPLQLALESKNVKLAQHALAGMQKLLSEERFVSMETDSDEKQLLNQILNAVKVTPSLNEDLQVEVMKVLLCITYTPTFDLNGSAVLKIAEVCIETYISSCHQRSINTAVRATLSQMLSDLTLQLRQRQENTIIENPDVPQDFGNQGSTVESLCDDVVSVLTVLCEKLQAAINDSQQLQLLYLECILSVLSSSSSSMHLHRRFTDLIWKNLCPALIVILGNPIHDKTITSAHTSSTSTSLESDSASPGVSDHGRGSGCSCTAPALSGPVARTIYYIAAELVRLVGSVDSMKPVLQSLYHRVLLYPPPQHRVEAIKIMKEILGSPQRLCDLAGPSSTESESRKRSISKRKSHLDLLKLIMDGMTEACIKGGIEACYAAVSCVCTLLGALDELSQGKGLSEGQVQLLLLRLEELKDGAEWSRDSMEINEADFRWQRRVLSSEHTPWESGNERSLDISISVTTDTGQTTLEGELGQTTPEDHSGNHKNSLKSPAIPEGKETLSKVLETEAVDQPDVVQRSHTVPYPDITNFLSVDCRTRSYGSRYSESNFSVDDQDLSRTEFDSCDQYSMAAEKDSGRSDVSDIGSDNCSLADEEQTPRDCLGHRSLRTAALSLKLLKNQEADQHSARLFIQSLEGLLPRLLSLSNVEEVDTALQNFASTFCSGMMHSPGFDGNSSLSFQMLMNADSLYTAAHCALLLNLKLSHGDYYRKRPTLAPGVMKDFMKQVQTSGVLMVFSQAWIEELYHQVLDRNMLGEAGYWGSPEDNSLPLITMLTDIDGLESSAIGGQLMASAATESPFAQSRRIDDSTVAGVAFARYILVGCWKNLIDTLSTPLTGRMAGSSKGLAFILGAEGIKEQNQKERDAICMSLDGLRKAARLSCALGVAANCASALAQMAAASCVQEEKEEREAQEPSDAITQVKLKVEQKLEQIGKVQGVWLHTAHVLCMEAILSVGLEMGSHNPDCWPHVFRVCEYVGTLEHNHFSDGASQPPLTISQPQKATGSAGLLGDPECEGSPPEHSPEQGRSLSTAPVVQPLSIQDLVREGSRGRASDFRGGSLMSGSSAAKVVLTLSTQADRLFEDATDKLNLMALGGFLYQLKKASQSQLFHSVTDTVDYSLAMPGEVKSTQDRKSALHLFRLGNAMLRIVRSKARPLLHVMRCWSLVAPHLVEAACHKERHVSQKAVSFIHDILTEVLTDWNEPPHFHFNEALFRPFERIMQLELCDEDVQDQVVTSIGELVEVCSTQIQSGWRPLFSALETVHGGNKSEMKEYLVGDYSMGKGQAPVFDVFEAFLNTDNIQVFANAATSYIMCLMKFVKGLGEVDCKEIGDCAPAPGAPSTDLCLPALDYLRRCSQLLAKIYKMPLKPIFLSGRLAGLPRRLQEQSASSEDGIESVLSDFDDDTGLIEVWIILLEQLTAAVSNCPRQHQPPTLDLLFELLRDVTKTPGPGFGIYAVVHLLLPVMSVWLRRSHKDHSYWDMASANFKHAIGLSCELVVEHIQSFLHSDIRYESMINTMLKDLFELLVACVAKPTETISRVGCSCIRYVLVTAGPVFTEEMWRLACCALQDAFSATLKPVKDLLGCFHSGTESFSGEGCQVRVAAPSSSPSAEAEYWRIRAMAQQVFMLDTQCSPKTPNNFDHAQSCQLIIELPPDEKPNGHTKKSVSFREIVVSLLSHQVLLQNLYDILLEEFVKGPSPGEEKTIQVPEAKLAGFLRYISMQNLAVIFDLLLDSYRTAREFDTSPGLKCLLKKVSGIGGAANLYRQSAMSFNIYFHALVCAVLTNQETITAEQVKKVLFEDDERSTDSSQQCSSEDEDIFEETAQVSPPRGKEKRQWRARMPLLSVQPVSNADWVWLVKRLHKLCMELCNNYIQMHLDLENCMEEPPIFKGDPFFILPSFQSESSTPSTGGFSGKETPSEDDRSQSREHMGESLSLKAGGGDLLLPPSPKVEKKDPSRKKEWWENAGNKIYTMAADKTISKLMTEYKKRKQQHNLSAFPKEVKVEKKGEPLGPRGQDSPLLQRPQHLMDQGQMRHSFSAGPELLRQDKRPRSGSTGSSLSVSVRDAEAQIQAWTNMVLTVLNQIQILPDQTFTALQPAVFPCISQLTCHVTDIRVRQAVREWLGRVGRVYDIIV
UniProt P62136: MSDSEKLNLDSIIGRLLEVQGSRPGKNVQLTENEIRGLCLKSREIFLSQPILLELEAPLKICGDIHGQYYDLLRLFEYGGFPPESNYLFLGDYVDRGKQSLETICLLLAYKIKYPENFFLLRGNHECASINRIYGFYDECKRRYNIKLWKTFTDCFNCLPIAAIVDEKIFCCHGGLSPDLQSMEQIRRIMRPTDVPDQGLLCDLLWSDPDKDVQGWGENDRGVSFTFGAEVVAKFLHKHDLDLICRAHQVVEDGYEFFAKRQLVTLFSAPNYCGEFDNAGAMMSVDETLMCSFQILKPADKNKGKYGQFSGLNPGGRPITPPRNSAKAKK

This assay concerns the target FLAG-tagged BIG3 mutant lacking the RVxF motif (ΔPP1Cα) (human) (UniProt Q5TH69). As to the kind of experiment: co-IP; FLAG-tagged BIG3 ΔPP1Cα mutant and endogenous PP1Cα (Supplementary Fig. 1b); cells not given.

As to “alpha isoform of the catalytic subunit of protein phosphatase 1 (PP1Cα), endogenous (from UniProt P62136 1-330) (enzyme)”, the binding entry was “no binding”.

Source of the values: PMC5512694.
